Reference: the supplement of paper PMC10849652
This is one part of the list.

The chains behind the UniProt entries cited, without tags or fusion partners. Where a name states a change or a piece, a line headed by the entry shows the natural chain unless it says otherwise.
UniProt O75874, whole entry, looked up: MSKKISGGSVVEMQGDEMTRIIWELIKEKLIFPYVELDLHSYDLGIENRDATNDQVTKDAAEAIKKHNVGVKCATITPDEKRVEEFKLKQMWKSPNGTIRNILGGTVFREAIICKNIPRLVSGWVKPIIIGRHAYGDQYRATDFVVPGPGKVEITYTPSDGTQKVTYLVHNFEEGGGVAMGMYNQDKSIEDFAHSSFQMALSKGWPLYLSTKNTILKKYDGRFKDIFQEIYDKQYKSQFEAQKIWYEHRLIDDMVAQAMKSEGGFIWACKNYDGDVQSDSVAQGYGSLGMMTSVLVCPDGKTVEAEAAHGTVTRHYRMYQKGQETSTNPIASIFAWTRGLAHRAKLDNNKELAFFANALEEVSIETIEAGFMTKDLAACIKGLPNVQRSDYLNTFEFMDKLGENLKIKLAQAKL
UniProt C9J406: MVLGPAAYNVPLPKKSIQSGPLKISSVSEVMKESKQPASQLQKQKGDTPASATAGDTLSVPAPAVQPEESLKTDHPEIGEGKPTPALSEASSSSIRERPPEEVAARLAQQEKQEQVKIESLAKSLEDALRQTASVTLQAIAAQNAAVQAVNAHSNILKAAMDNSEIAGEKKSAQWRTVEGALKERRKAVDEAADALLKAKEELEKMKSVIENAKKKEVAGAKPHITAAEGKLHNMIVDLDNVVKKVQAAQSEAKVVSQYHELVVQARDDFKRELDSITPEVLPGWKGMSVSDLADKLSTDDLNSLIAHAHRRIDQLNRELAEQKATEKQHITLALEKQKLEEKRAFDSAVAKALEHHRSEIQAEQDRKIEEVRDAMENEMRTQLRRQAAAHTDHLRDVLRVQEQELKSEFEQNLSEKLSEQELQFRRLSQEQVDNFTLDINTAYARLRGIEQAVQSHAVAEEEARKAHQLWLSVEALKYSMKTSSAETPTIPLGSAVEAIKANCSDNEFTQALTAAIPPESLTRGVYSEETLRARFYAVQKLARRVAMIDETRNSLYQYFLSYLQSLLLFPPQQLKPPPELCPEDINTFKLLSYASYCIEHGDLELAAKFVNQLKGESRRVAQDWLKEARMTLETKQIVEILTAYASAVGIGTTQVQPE
UniProt P13598: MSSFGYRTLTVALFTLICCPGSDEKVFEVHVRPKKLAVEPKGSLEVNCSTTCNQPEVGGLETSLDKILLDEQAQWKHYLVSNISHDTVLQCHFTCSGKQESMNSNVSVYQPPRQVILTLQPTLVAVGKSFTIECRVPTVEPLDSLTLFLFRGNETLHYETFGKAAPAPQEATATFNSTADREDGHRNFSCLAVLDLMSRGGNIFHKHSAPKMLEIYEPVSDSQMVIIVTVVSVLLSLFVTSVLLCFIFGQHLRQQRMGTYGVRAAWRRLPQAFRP
UniProt Q9P2X3: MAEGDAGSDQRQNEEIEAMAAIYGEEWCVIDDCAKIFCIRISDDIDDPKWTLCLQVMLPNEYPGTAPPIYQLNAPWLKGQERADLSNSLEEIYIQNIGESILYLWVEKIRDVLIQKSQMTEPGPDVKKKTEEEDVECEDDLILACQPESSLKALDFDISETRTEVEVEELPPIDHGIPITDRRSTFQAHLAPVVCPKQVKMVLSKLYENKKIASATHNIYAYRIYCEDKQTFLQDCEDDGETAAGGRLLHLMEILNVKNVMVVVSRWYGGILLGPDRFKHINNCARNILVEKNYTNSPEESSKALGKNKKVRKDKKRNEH
UniProt Q9Y5U9: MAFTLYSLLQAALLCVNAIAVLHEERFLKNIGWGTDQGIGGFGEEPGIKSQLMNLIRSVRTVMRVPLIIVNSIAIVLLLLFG
UniProt O14920: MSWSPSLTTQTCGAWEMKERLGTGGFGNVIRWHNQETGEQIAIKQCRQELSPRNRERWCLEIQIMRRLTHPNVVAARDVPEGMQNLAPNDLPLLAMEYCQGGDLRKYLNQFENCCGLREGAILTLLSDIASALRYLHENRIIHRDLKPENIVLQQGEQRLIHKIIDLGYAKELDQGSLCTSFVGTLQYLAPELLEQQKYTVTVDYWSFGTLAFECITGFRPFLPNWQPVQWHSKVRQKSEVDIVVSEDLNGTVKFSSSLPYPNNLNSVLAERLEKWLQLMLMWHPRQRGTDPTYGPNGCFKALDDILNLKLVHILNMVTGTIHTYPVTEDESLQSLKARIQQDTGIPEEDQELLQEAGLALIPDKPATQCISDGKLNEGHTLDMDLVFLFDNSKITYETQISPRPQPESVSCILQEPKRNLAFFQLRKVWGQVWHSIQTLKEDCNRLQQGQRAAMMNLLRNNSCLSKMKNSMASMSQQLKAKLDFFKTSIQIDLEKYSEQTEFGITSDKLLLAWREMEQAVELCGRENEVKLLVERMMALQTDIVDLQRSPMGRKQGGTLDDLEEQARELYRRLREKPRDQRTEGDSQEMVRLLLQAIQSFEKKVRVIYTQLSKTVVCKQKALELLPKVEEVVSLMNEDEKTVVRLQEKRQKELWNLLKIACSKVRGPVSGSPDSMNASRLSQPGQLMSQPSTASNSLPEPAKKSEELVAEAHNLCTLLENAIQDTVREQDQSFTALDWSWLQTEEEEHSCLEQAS
UniProt Q12906, whole entry, looked up: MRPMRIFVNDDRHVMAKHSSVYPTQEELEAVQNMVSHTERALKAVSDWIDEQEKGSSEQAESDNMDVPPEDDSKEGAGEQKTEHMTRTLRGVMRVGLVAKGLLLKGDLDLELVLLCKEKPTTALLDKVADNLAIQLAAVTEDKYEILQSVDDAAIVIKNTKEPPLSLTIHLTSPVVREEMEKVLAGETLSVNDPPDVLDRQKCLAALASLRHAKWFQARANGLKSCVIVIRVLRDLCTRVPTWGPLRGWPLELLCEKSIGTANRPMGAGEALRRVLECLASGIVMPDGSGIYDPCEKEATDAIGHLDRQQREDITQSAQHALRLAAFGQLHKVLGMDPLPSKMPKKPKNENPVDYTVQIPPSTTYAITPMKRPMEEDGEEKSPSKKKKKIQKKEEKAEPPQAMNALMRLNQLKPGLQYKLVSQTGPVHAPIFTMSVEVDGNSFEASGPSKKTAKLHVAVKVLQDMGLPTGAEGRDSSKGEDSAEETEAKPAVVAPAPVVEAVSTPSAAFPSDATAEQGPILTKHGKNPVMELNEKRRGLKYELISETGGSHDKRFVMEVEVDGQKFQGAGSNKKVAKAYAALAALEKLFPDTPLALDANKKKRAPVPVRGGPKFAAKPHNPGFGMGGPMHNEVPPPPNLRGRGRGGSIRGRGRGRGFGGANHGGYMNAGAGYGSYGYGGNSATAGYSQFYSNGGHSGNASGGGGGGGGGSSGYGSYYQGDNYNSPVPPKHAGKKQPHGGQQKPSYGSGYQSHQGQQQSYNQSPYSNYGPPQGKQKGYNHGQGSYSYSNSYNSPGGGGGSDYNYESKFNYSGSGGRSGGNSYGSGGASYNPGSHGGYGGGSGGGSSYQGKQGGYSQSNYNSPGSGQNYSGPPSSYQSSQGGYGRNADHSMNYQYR
UniProt Q13422: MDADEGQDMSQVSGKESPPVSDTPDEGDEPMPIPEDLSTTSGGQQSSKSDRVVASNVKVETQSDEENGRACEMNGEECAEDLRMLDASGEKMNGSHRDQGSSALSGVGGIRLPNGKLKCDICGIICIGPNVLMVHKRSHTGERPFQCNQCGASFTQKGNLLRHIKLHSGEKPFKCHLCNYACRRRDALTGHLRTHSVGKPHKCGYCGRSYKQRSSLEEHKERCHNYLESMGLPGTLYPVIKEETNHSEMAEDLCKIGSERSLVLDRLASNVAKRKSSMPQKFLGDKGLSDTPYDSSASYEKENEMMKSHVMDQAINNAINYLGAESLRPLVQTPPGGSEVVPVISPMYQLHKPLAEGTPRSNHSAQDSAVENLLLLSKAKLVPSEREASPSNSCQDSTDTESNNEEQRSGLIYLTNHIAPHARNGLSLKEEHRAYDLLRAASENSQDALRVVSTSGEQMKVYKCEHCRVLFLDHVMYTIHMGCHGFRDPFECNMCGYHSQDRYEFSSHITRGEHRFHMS
UniProt Q70UQ0: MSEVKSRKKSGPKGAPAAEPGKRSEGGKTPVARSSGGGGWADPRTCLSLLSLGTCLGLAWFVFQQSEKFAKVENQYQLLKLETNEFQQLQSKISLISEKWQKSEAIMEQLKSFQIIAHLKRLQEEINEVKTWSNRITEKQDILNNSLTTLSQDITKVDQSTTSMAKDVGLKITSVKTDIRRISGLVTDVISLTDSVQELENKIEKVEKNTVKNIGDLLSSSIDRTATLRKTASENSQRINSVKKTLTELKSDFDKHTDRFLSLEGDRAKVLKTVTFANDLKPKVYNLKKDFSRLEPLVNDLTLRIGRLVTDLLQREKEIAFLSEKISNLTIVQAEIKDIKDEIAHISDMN
UniProt Q9NZI8, whole entry, looked up: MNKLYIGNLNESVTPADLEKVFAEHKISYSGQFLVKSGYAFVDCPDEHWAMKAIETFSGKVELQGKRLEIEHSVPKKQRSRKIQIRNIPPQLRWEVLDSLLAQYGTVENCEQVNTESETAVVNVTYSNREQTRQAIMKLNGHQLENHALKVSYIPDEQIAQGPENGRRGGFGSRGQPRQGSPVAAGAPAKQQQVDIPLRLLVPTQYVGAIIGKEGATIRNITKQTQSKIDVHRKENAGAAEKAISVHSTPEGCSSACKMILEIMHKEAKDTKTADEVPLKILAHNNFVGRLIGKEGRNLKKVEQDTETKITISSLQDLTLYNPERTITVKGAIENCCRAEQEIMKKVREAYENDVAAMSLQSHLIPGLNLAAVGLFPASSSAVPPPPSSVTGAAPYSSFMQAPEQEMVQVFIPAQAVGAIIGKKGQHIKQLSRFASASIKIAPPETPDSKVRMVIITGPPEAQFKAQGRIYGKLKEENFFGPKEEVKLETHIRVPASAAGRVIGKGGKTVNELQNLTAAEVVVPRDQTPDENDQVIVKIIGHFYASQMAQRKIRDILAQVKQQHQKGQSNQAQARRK
UniProt P29218: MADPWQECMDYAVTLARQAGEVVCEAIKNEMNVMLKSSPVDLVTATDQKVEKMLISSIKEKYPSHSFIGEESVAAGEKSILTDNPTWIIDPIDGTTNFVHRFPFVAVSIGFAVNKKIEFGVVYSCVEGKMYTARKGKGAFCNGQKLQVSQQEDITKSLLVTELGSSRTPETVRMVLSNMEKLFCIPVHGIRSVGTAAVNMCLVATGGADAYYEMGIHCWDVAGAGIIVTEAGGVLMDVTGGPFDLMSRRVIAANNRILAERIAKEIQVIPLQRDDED
UniProt Q96LB3: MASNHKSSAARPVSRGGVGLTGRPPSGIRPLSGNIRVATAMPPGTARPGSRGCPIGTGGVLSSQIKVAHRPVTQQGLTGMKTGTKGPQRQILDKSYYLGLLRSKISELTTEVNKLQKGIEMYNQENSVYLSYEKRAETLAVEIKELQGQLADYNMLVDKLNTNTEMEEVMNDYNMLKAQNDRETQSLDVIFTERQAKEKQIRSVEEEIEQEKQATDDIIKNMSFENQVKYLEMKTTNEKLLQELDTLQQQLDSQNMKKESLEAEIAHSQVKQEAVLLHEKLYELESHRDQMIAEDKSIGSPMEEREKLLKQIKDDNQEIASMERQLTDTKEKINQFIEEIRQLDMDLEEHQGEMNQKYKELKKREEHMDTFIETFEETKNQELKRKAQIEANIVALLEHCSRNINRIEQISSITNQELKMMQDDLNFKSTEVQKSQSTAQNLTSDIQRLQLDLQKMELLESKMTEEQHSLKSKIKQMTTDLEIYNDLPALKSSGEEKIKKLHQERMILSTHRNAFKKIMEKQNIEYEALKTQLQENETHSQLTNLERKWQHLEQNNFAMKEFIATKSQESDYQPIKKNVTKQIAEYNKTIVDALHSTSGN
UniProt Q9Y6M1: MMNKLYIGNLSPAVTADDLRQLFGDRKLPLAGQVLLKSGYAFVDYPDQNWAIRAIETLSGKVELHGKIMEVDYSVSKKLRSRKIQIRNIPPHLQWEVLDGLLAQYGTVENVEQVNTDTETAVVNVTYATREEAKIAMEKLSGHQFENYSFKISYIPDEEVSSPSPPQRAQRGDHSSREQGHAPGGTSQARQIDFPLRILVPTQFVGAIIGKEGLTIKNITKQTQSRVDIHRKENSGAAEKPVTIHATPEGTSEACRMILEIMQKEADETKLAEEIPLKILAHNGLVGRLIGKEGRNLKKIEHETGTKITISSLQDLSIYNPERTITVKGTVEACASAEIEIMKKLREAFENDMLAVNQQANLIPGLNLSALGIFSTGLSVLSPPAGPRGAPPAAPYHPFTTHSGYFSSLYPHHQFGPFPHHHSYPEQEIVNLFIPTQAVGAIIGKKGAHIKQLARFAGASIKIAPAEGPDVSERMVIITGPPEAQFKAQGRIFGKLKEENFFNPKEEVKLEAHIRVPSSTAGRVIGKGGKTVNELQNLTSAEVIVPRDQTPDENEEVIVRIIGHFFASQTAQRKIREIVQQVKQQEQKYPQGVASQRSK
UniProt P04792, whole entry, looked up: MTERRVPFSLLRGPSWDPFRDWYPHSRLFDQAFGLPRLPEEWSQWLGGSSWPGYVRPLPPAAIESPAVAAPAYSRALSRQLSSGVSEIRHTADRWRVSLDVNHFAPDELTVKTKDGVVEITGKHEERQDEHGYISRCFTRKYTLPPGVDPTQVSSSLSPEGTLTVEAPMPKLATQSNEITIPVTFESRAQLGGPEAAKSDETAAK

Assays:
Experiment in all cases: log2 fold change, soluble protein after heating vs DMSO (PISA); higher = thermal stabilisation; K562 lysate, 10 uM; active = over 0.2 and 3.5 SD of the protein, either way, in both replicates (recomputed)
vemurafenib = compound: CCCS(=O)(=O)Nc1ccc(F)c(C(=O)c2c[nH]c3ncc(-c4ccc(Cl)cc4)cc23)c1F [vemurafenib]
Outline: (§1)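 Log-two fold change in thermal stability relative to solvent controls is reported from duplicates. For each sample, crude K562 extract from dounce-homogenised pellets in PBS pH 7.4 with 1 mM MgCl2, at 1 mg/mL protein, was treated with 10 μM compound for 30 min. Aliquots heated for 3 min across 48°C-58°C were pooled, brought to 0.5% NP-40 at 4°C and cleared at 21,000xg for 90 min. The supernatant was quantified by TMTpro 16plex LC-MS/MS with channel sums equalised.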

[1] = compound: CCCS(=O)(=O)Nc1ccc(F)c(C(=O)c2c[nH]c3ncc(Cl)cc23)c1F
Outline: as §1

barasertib = compound: CCN(CCCOc1ccc2c(Nc3cc(CC(=O)Nc4cccc(F)c4)[nH]n3)ncnc2c1)CCOP(=O)(O)O [barasertib]
Outline: as §1

[2] = compound: CC[C@@H]1C(=O)N(C)c2cnc(Nc3ccc(C(=O)NC4CCN(C)CC4)cc3OC)nc2N1C1CCCC1
Outline: as §1

volasertib = compound: CC[C@@H]1C(=O)N(C)c2cnc(Nc3ccc(C(=O)N[C@H]4CC[C@H](N5CCN(CC6CC6)CC5)CC4)cc3OC)nc2N1C(C)C [volasertib]
Outline: as §1

[3] = compound: CCn1c(C(=O)N(C2CC2)C2CC2)cc2c3c(ncn3C)c(Nc3cc(C)n(C)n3)nc21
Outline: as §1

[4] = compound: CCn1cc(-c2ccnc3[nH]c(-c4cccc(CN(C)C)c4)cc23)c(-c2ccc(NC(=O)N(C)C)cc2)n1
Outline: as §1

[5] = compound: CN1CCC(CNc2ccc3ncc(-c4cccc(OC(F)(F)F)c4)n3n2)CC1
Outline: as §1

saracatinib = compound: CN1CCN(CCOc2cc(OC3CCOCC3)c3c(Nc4c(Cl)ccc5c4OCO5)ncnc3c2)CC1 [saracatinib]
Outline: as §1

sotrastaurin = compound: CN1CCN(c2nc(C3=C(c4c[nH]c5ccccc45)C(=O)NC3=O)c3ccccc3n2)CC1 [sotrastaurin]
Outline: as §1

Measured: log2 fold change

HSPA8 (UniProt E9PK54)
inactive: vemurafenib -0.047 | [1] 0.014 | barasertib -0.113 | [2] -0.071 | volasertib -0.056 | [3] 0.08 | [4] -0.144 | [5] 0.052 | saracatinib 0.108 | sotrastaurin 0.028

INF2 (UniProt Q27J81)
inactive: vemurafenib 0 | [1] -0.059 | barasertib 0.104 | [2] -0.07 | volasertib -0.052 | [3] -0.01 | [4] -0.064 | [5] -0.045 | saracatinib 0.036 | sotrastaurin 0.019

IDH1 (UniProt O75874)
inactive: vemurafenib 0.009 | [1] 0.008 | barasertib 0.021 | [2] -0.063 | volasertib -0.067 | [3] 0.023 | [4] -0.08 | [5] -0.005 | saracatinib 0.016 | sotrastaurin -0.026

IMMT (UniProt C9J406)
inactive: vemurafenib -0.018 | [1] -0.036 | barasertib -0.105 | [2] 0.098 | volasertib -0.015 | [3] 0.018 | [4] -0.464 | [5] -0.037 | saracatinib 0.074 | sotrastaurin 0.02

ICAM2 (UniProt P13598)
inactive: vemurafenib -0.036 | [1] 0.016 | barasertib 0.018 | [2] 0.03 | volasertib 0.015 | [3] -0.017 | [5] -0.031 | saracatinib 0.004 | sotrastaurin -0.035
active: [4] 0.426

IMPACT (UniProt Q9P2X3)
inactive: vemurafenib 0.158 | [1] -0.117 | barasertib -0.014 | [2] -0.095 | volasertib 0.053 | [3] 0.133 | [4] 0.003 | [5] -0.122 | saracatinib 0.001 | sotrastaurin 0.058

IFT80 isoform 3 (UniProt Q9P2H3)
inactive: vemurafenib 0.033 | [1] 0.037 | barasertib 0.024 | [2] 0.183 | volasertib -0.025 | [3] -0.068 | [4] -0.082 | [5] -0.099 | saracatinib -0.008 | sotrastaurin 0.026

IER3IP1 (UniProt Q9Y5U9)
inactive: vemurafenib 0.037 | [1] 0.084 | barasertib 0.242 | [2] -0.001 | volasertib 0 | [3] -0.01 | [4] -0.188 | [5] 0.094 | saracatinib -0.002

INPP5F (UniProt Q9Y2H2)
inactive: vemurafenib 0.361 | [1] 0.096 | barasertib 0.083 | [2] 0.582 | volasertib 0.037 | [3] -0.357 | [4] -0.335 | [5] 0.192 | saracatinib -0.006

IDI1 (UniProt Q13907)
inactive: vemurafenib -0.009 | [1] 0.001 | barasertib 0.022 | [2] 0.081 | volasertib 0 | [3] -0.017 | [4] -0.175 | [5] 0.048 | saracatinib -0.035 | sotrastaurin -0.101

INPPL1 (UniProt O15357)
inactive: vemurafenib 0.023 | [1] 0.01 | barasertib 0.028 | [2] -0.02 | volasertib -0.047 | [3] 0.095 | [4] -0.017 | [5] -0.06 | saracatinib 0.005 | sotrastaurin 0.019

IL18R1 (UniProt Q13478)
inactive: vemurafenib 0.074 | [1] -0.026 | barasertib 0.061 | [2] 0.087 | volasertib 0.044 | [3] -0.184 | [4] -0.284 | [5] 0.085 | saracatinib 0.023 | sotrastaurin -0.064

IMPDH2 (UniProt P12268)
inactive: vemurafenib 0.015 | [1] 0.009 | barasertib -0.056 | [2] -0.015 | volasertib 0.012 | [3] 0.039 | [4] 0.11 | [5] 0.01 | saracatinib -0.001 | sotrastaurin -0.005

IKBKB (UniProt O14920)
inactive: vemurafenib 0.061 | [1] 0.025 | barasertib 0.013 | [2] -0.005 | volasertib -0.038 | [3] 0.047 | [4] 0.06 | [5] -0.052 | saracatinib 0.016 | sotrastaurin 0.019

ILF3 isoform 7 (UniProt Q12906)
inactive: vemurafenib -0.002 | [1] 0 | barasertib -0.029 | [2] 0.005 | volasertib 0.009 | [3] 0.021 | [4] -0.043 | [5] 0.031 | saracatinib 0.011 | sotrastaurin -0.001

IKZF1 (UniProt Q13422)
inactive: vemurafenib 0.028 | [1] 0.044 | barasertib 0.054 | [2] 0.019 | volasertib -0.007 | [3] -0.034 | [4] 0.062 | [5] -0.055 | saracatinib 0.033 | sotrastaurin -0.108

IGSF8 (UniProt Q969P0)
inactive: vemurafenib 0.011 | [1] 0.006 | barasertib 0.015 | [2] -0.194 | volasertib 0.027 | [3] 0.052 | [4] -0.126 | [5] 0.058 | saracatinib -0.063 | sotrastaurin -0.006

ICAM1 (UniProt P05362)
inactive: vemurafenib 0.023 | [1] -0.008 | barasertib 0.126 | [2] 0.072 | volasertib -0.01 | [3] -0.005 | [4] -0.047 | [5] 0.03 | saracatinib -0.032 | sotrastaurin -0.04

IDE, A0A3B3ISG5
inactive: vemurafenib 0.005 | [1] 0.006 | barasertib -0.018 | [2] -0.014 | volasertib -0.009 | [3] -0.003 | [4] -0.013 | [5] -0.028 | saracatinib -0.022 | sotrastaurin 0.021

IKBIP (UniProt Q70UQ0)
inactive: vemurafenib -0.051 | [1] 0.008 | barasertib 0.004 | [2] -0.018 | volasertib -0.006 | [3] -0.007 | [4] -0.058 | [5] 0.018 | saracatinib 0.011 | sotrastaurin -0.039

IGF2BP1 (UniProt Q9NZI8)
inactive: vemurafenib 0.047 | [1] 0.022 | barasertib 0.024 | [2] -0.08 | volasertib -0.029 | [3] 0.05 | [4] -0.124 | [5] -0.033 | saracatinib 0.021 | sotrastaurin 0.023

IMPDH1 isoform 6 (UniProt P20839)
inactive: vemurafenib -0.006 | [1] -0.015 | barasertib -0.01 | [2] 0.003 | volasertib -0.002 | [3] -0.006 | [4] -0.128 | [5] 0.021 | saracatinib 0.003 | sotrastaurin -0.024

IGSF3 (UniProt O75054)
inactive: vemurafenib -0.101 | [1] -0.012 | barasertib 0.056 | [2] 0.056 | volasertib 0.005 | [3] -0.043 | [4] -0.037 | [5] 0.106 | saracatinib -0.07 | sotrastaurin 0.076

IDH3A (UniProt P50213)
inactive: vemurafenib -0.003 | [1] 0.013 | barasertib 0.019 | [2] -0.028 | volasertib 0.009 | [3] 0.012 | [4] 0.074 | [5] -0.035 | saracatinib -0.015 | sotrastaurin -0.016

IMPA1 isoform 3 (UniProt P29218)
inactive: vemurafenib -0.004 | [1] 0.002 | barasertib -0.035 | [2] 0.015 | volasertib 0.025 | [3] -0.028 | [4] 0.118 | [5] -0.032 | saracatinib -0.011 | sotrastaurin 0.002

IFT74 (UniProt Q96LB3)
inactive: vemurafenib 0.018 | [1] 0.019 | barasertib 0.003 | [2] 0.164 | volasertib 0.073 | [3] -0.141 | [4] -0.18 | [5] 0.22 | saracatinib 0.024 | sotrastaurin 0.022

HYPK (UniProt Q9NX55)
inactive: vemurafenib -0.022 | [1] -0.036 | barasertib 0.125 | [2] 0.023 | volasertib 0.012 | [3] -0.042 | [4] -0.011 | [5] 0.001 | saracatinib 0.038 | sotrastaurin 0.02

IKBKG isoform 2 (UniProt Q9Y6K9)
inactive: vemurafenib 0.025 | [1] 0.003 | barasertib -0.019 | [2] 0.003 | volasertib 0.009 | [3] 0.019 | [4] 0.018 | [5] 0.063 | saracatinib 0.024 | sotrastaurin -0.039

IGF2BP2 (UniProt Q9Y6M1)
inactive: vemurafenib 0.05 | [1] 0.026 | barasertib -0.005 | [2] -0.1 | volasertib -0.049 | [3] 0.02 | [4] -0.066 | [5] 0.036 | saracatinib 0.014 | sotrastaurin 0.026

HSPB1 (UniProt P04792)
inactive: vemurafenib -0.001 | [1] -0.003 | barasertib 0.019 | [2] 0.008 | volasertib -0.02 | [3] 0.01 | [4] 0.005 | [5] -0.042 | saracatinib 0.024 | sotrastaurin 0.005

Two entries picked at random from those above, as already listed:
IKBKB (UniProt O14920)
inactive: vemurafenib 0.061 | [1] 0.025 | barasertib 0.013 | [2] -0.005 | volasertib -0.038 | [3] 0.047 | [4] 0.06 | [5] -0.052 | saracatinib 0.016 | sotrastaurin 0.019

IDI1 (UniProt Q13907)
inactive: vemurafenib -0.009 | [1] 0.001 | barasertib 0.022 | [2] 0.081 | volasertib 0 | [3] -0.017 | [4] -0.175 | [5] 0.048 | saracatinib -0.035 | sotrastaurin -0.101
